No constants are given. Whether binding was seen depends on the method and setting. Binding seen in cells or lysates may run through a third protein. Some results given as binding are weak or reduced against the parent protein; the word gives no strength.
Target: T1, Relish, whole protein (~110 kDa) (Drosophila (endogenous in eye imaginal discs)) (UniProt Q94527)
T1 sequence: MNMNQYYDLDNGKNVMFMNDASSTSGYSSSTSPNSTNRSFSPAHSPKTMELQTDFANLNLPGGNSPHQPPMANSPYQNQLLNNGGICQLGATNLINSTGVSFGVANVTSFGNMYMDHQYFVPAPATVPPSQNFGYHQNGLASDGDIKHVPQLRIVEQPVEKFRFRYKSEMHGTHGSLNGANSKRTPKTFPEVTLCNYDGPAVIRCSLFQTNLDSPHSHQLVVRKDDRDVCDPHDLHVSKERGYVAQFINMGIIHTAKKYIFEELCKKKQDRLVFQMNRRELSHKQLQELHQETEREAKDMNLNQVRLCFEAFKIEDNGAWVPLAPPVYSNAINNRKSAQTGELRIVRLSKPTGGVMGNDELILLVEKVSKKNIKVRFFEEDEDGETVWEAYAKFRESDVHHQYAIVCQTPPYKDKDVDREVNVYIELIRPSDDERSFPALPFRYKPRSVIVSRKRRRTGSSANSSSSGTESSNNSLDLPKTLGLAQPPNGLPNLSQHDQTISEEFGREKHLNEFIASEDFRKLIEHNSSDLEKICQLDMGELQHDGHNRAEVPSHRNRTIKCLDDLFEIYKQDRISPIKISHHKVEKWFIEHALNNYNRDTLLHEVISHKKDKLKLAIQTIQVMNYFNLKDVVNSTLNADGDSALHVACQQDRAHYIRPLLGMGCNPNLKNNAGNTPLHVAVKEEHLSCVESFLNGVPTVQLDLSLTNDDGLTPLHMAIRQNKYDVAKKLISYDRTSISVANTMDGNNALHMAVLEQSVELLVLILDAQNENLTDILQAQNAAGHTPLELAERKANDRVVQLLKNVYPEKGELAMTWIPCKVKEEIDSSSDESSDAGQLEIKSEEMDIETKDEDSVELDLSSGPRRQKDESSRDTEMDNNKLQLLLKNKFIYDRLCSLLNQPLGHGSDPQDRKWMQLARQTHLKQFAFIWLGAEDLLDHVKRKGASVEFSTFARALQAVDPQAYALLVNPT
Test: co-IP; Relish precipitated with anti-Relish (IP2) from eye disc lysate of GMR-GAL4:UAS-127Q.HA third instar larvae; RIPA buffer, Protein G-Dynabeads, 4°C overnight; Western blot of the eluate

By UniProt entry, the sequences of proteins in these tests, tags left out.
UniProt P11147: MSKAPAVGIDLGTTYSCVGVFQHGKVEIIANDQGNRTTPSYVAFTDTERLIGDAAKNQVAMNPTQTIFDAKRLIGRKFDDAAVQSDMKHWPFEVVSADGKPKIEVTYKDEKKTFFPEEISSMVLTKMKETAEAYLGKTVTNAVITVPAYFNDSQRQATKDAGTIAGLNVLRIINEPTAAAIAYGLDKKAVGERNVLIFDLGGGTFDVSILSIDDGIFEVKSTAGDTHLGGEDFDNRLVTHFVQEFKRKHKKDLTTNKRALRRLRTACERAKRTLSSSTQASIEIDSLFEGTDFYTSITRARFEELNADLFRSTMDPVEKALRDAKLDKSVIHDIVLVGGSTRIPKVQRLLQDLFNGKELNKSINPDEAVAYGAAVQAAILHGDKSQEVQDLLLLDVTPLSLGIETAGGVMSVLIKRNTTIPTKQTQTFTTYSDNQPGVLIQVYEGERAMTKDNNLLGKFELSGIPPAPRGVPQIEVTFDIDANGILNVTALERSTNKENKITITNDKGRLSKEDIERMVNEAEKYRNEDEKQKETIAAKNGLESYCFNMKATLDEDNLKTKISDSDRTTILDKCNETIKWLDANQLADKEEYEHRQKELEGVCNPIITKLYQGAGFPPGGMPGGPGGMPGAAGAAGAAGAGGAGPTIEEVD

## Hsc70 (heat shock cognate 70; Hsc70-4, the Drosophila homolog of human HSPA8) (from UniProt P11147 1-651)
  binding: binds

From publication PMC9678916
